The subject of this series is CAF-1 (Cac1-Cac2-Cac3). Put plainly: EMSA. The conditions noted are these: 10-fold weaker binding than longer DNA, Hill coefficient fixed at 1; EMSA: 25 mM Tris pH 7.5, 150 mM NaCl, 1 mM EDTA, 0.02% Tween-20, 1 mM TCEP, 50 nM DNA, 6% PAGE; recombinant protein; label: 5' Alexa Fluor 647 on forward ….

For at least one entry, the source does not settle the construct or the ends of the probe.

Regarding “GTCTACGAGCAATTGAGC (double strand) [18 bp DNA]”, the Kd is more than 2 µM.

For the origin of these results see publication PMC10164577.
